Experimental data: PubChem BioAssay AID652243 (Drosophila RNAi Screening Center, 2013)
The screen tested about 24,000 reagents; this is a random part of those that have a named target and a result. Of all reagents, 246 (1%) got an active call. 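Plates not normalised; calls are printed but the firefly/Renilla ratio behind them is not deposited; fold cut for lowering reported inconsistently.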 The raw values are shown without normalisation. The numbers tell different reagents against one gene apart. No sequences are given here. The record does not give: the amount of reagent.

Test: 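Fly genes required for human androgen receptor driven transcription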 (primary screen)
Cells: Drosophila S2R+ cells
Reagents: long dsRNA against Drosophila genes
Time to read-out: 72 h (48 h, then 24 h hormone)
Conditions: synthetic androgen R1881 at 10 nM for 24 h
Measured: 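Firefly light from an androgen-responsive reporter and Renilla control light per well, raw and unnormalised, for each of two replicates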
Direction: firefly reporter light: higher = more light from androgen-responsive reporter; Renilla control light: higher = more constitutive control signal (cell number, transfection)
Hit rule: 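Across duplicate plates, a knock-down whose log firefly/Renilla ratio shifted a set fold down or up from the GFP/LacZ control mean was a hit; the downward cut appears as both 1.5 and 3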
Calls: active = hit: reporter lowered or raised; inactive = no hit

CG34056: firefly reporter light, replicate 1 = 72223; firefly reporter light, replicate 2 = 41174; Renilla control light, replicate 1 = 5.92e5; Renilla control light, replicate 2 = 5.56e5; call = inactive
Stacl #1: firefly reporter light, replicate 1 = 20330; firefly reporter light, replicate 2 = 12181; Renilla control light, replicate 1 = 48762; Renilla control light, replicate 2 = 96564; call = inactive
Stacl #2: firefly reporter light, replicate 1 = 82335; firefly reporter light, replicate 2 = 1.23e5; Renilla control light, replicate 1 = 2.13e6; Renilla control light, replicate 2 = 2.13e6; call = inactive
Stacl #3: firefly reporter light, replicate 1 = 83786; firefly reporter light, replicate 2 = 79875; Renilla control light, replicate 1 = 1.64e6; Renilla control light, replicate 2 = 1.64e6; call = inactive
Stacl #4: firefly reporter light, replicate 1 = 43861; firefly reporter light, replicate 2 = 1.21e5; Renilla control light, replicate 1 = 1.17e6; Renilla control light, replicate 2 = 1.17e6; call = inactive
Stacl #5: firefly reporter light, replicate 1 = 7.74e5; firefly reporter light, replicate 2 = 9.15e5; Renilla control light, replicate 1 = 1.57e6; Renilla control light, replicate 2 = 2.02e6; call = inactive
Stacl #6: firefly reporter light, replicate 1 = 2.33e5; firefly reporter light, replicate 2 = 1.89e5; Renilla control light, replicate 1 = 8.88e5; Renilla control light, replicate 2 = 8.51e5; call = inactive
Stacl #7: firefly reporter light, replicate 1 = 2.96e5; firefly reporter light, replicate 2 = 3.20e5; Renilla control light, replicate 1 = 1.00e6; Renilla control light, replicate 2 = 9.14e5; call = inactive
Stacl #8: call = inactive
Stacl #9: call = inactive
CG15533 #1: firefly reporter light, replicate 1 = 1.47e5; firefly reporter light, replicate 2 = 1.32e5; Renilla control light, replicate 1 = 1.95e6; Renilla control light, replicate 2 = 2.12e6; call = inactive
CG15533 #2: firefly reporter light, replicate 1 = 6.58e5; firefly reporter light, replicate 2 = 7.07e5; Renilla control light, replicate 1 = 1.43e6; Renilla control light, replicate 2 = 1.40e6; call = inactive
CR31032 #1: firefly reporter light, replicate 1 = 5.91e5; firefly reporter light, replicate 2 = 9.76e5; Renilla control light, replicate 1 = 9.48e5; Renilla control light, replicate 2 = 1.28e6; call = inactive
CR31032 #2: firefly reporter light, replicate 1 = 4.61e5; firefly reporter light, replicate 2 = 4.75e5; Renilla control light, replicate 1 = 7.38e5; Renilla control light, replicate 2 = 6.01e5; call = inactive
